Experimental data published in patent publication CN115989242A.
No constants are given. Whether binding was seen depends on the method and setting. Some entries that bind do so weakly or less than the wild type.

The chains behind the UniProt entries cited, without tags or fusion partners. Where a name states a change or a piece, a line headed by the entry shows the natural chain unless it says otherwise. A line that says so, or that is headed by a name, gives the form on record, which may keep a tag or linker.
间皮素-Fc重组蛋白 (Q13421, form named): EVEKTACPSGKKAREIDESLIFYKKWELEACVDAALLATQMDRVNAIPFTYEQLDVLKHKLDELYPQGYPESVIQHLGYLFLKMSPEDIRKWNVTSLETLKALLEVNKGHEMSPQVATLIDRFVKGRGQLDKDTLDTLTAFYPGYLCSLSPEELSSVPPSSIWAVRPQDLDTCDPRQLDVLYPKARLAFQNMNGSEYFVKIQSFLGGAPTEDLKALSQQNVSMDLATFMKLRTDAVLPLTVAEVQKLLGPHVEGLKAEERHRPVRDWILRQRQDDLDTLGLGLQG

Target: 间皮素-Fc重组蛋白 (human) (UniProt Q13421)
Assay: FACS staining of CAR T cells with mesothelin-Fc recombinant protein

binding	Binder
binds	抗间皮素scFv-M12 (scFv, not shown: large carriers) scFv: AIRLTQSPSLLSASVGDRVTVTCRASQGGGNYLAWYQQKPGKAPKLLIYGASKLQSGVPSRFSGSGSGTEFTLTISSLQPEDFATYYCQQLNSYPVTFGQGTKVDIKGGGGSGGGGSGGGGSEVQLVESGAEVKKPGASVKVSCKASGYTFTTYYIHWVRQAPGQGLEWMGIINPSSGSTTYTQKFQGRVTMTRDTSTSTVYIELSGLRSEDTAVYYCARGETLRGYFDYWGQGTLVTVSS
binds	抗间皮素scFv-M13 (scFv, not shown: large carriers) scFv: AIRMTQSPSSLSASVGDRVTITCRASQGISNSLAWYQQKPGKAPKLLLYAASRLESGVPSRFSGSGSGTDYTLTISSLQPEDFATYYCQQYYSTPFTFGPGTKLEIKGGGGSGGGGSGGGGSQVQLVQSGAEVKKPGSSVKVSCKTSADTFSANTINWVRQAPGHGLEWMGRIIPSLNIRDYAQEFQGRVTFTADESTNTVYMQLTSLRSEDTAVYYCARDPGSTWSPNQFFPHWGQGTLVTVSS
binds	抗间皮素scFv-M37 (scFv, not shown: large carriers) scFv: DIVMTQTPSSLSASVGDRVTITCRASQGISNYLAWFQQKPGKAPKPLIYAASSLQSGVPSKFSGSGSGTDFTLTISNLQPEDFATYICQQYSSYPITFGQGTRLEIKGGGGSGGGGSGGGGSQLQLQESGPGLVKPSETLSLTCAVSGGSISPYYWTWIRQSPGKAMEWMGYIHYSGRTNYNPSLESRATFSVDTSKNQISLKLNSVTAADTAVYYCTKVGDPGLFDYWGPGTLVTVSS
binds	抗间皮素scFv-M6 (scFv, not shown: large carriers) scFv: EIVMTQSPATLSLSPGERATLSCRASQSIGNSLAWYQQKPGQAPRLLIYDVSNRATGIPARFSGSGSGTDFTLTISSLEPEDFAVYYCQHRYSWPLTFGGGTKVEIKGGGGSGGGGSGGGGSQVQLVQSGGGLVKPGGSLRLSCAASGFTFSDYYMSWIRQAPGKGLEWVSYISSSGSTIYYADSVKGRFTISRDNAKNSLYLQMNSLRAEDTAVYYCARDGYRTHNWFDPWGQGTLVTVSS
binds	抗间皮素scFv-M28 (scFv, not shown: large carriers) scFv: QSALTQPPSASGSPGQSVTISCSGTSSDVGGYNFVSWYQHHPGKAPKLMIYEVSKRPSGVPDRFSGSKSGNTASLTVSGLQAEDEADYYCSSYAGRNNPYLFGTGTKLTVLGGGGSGGGGSGGGGSQLQLQESGAEVKKPGSSVKVSCKASGGTFSSYAISWVRQAPGQGLEWMGGIIPIFGTANYAQKFQGRVTITADESTSTAYMELSSLRSEDTAVYYCARDLGGYSYGHGLDYWGQGTLVTVSS
binds	抗间皮素scFv-M31 (scFv, not shown: large carriers) scFv: QSALTQPPSASGSPGQSVTISCTGTSSDIGGYNSVSWYQQHPGKAPKLIIYGVSRRPSGVPDRFSGSKSANTASLTVSGLQAVDEADYYCSSYGGSNNLLFGGGTKLTVLGGGGSGGGGSGGGGSEVHLVESGGGLAQPGGSLRLSCAASGFSFSSSWMAWVRQAPGKGLEWVANIKQDGSSQYYVDSVKGRFTISRDNAKNSLSLQMNSLRAEDTAVYYCARDIWYSIDYWGQGTLVTVSS
binds	抗间皮素scFv-M24 (scFv, not shown: large carriers) scFv: QPVLTQPPSASGTPGQRVTISCSGSSSNIGSNYVYWYQQFPGTAPKLLIYMNNQRPSGVPDRFSGSKSGTSASLAISGLRSEDEADYYCAARDDSLSGYVTFGGGTKLTVLGGGGSGGGGSGGGGSEVHLVESGGGLVQPGGSLRLSCAASGFTFSSYAMSWVRQAPGKGLEWVSAISGSGGSTYYADSVKGRFTISRDNSKNTLYLQMNSLKTEDTAVYYCTRGVATFDYWGQGTLVTVSS
binds	抗间皮素scFv-M7 (scFv, not shown: large carriers) scFv: DIRLTQSPSSLSASLGDRVTITCRASQAISSALAWYQQKPGKAPRLLIYDASTLESGVPSRFSGSGSGTDFTLTISSLQPEDFATYYCQQADSFPLTFGGGTKLEIKGGGGSGGGGSGGGGSQVQLVQSGAEVKKSGESLKISCKGSGYGFGAYWIAWVRQMPGKGLEWMGIIYPGDSRVIYSPYFQGQVTISADKSISTAYLQWSSLKASDTAMYYCARFGGPKFATNWFDIWGQGTTVTVSS
binds	抗间皮素scFv-M27 (scFv, not shown: large carriers) scFv: EIVLTQSPGTLSLSPGERATLSCRASQPIVASHLAWYQHKPGQAPRLLIYGASTRAAGIPDRFSGSGSGTDFTLTISRLEPEDFAVYFCQQYGISPFTFGPGTKVDIKGGGGSGGGGSGGGGSQVQLVQSGAEVKKPGESLKISCQGSGYSFTDYWIGWVRQAPGQGLEWMGWITPNNGNTNYAPKFQGRVTLTTDTSTSTAYMELRSLTSDDTAVYFCARRGRNSSGYLYYYSMDVWGQGTTVTVSS
binds	抗间皮素scFv-M8 (scFv, not shown: large carriers) scFv: DIQLTQSPSSLSASVGDRVTITCRASQSISSSLNWYQQKPGKAPKLLIYAASSLQSGVPSRFSGSGSGTDFTLTISSLQPEDFATYSCQQSYSTPLTFGGGTKVEIKGGGGSGGGGSGGGGSQVHLVESGGGVVQPGRSLRVSCAASGFTFSGYAMYWVRQAPGKGLEYVSAITTNGGSTNYADSVKGRFTISRDNSKNTLYLQMSSLRAGDTAVYYCARGAPGYRGYYMDVWGKGTTVTVSS
binds	抗间皮素scFv-M32 (scFv, not shown: large carriers) scFv: DIRMTQSPSSLSASVGDRVTVTCQASEDINNSLNWYQQKPGKAPQLLIYDASDLETGVPSRFSGRGSGRDFTLTISSLQPEDFATYYCQQLNSYPLTFGGGTKLEIKGGGGSGGGGSGGGGSQVQLVQSGAEVKKPGASVKVSCKASGFTFIGYYLHWVRQAPGQGLEWMGIINPSGGRTSMAQKFQGRVSMTTDTSTGTVYLDLGRLGSDDTAVYYCARADNWNAGSMDVWGNGTTVTVSS
binds	抗间皮素scFv-M20 (scFv, not shown: large carriers) scFv: AIQMTQSPSSLSASVGNRVTITCRASQGISSAVAWYQQKPGKPPKLLISYASSLESGVPSRFSGSGSGTDFSLTISSLQPEDFATYFCQQFNSYPLTFGGGTKVEIKGGGGSGGGGSGGGGSQVQLVQSGAEVRKPGESLKISCKGSGYSFRDSWIAWVRQMPGQGLEWMGIIFPGDSNPIYSPSFQGQVTISADTSISTTFLQWRSLKASDSAIYYCARHAAWGAGWFDPWGQGTLVTVSS
